Test results: PMC10650109
No constants are given. Whether binding was seen depends on the method and setting. Binding seen in cells or lysates may run through a third protein. A yes stands for co-enrichment or nearness to the bait. Other partners may have been found.

Chains of the proteins cited; added tags and fusions are not shown. Residues count along the entry.
UniProt Q99527: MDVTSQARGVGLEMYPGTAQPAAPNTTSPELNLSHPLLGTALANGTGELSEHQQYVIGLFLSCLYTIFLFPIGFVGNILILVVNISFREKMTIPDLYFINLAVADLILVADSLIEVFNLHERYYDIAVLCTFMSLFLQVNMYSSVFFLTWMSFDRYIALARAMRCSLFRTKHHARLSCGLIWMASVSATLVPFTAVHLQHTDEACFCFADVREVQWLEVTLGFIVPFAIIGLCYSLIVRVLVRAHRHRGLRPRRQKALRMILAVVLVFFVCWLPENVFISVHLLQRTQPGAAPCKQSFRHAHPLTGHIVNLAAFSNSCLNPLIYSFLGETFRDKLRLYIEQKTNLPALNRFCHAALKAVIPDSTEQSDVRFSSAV
UniProt Q13586, residues 23-685: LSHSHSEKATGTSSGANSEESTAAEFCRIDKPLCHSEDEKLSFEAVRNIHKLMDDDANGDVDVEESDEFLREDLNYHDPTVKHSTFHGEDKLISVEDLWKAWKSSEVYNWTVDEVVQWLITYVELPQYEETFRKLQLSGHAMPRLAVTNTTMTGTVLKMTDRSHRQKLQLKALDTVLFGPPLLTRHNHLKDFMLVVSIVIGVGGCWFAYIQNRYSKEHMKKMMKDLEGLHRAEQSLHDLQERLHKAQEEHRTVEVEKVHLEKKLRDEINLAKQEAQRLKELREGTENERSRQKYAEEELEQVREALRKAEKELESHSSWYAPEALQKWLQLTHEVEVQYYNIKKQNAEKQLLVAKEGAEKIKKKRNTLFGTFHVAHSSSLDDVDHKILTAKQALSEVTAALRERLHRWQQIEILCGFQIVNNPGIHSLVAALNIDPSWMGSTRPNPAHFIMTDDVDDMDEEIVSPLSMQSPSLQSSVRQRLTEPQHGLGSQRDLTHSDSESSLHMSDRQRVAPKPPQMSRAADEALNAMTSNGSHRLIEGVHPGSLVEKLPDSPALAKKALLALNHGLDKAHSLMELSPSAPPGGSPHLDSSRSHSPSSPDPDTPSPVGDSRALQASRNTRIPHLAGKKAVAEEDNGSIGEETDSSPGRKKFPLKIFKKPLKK
UniProt P14314, residues 15-528: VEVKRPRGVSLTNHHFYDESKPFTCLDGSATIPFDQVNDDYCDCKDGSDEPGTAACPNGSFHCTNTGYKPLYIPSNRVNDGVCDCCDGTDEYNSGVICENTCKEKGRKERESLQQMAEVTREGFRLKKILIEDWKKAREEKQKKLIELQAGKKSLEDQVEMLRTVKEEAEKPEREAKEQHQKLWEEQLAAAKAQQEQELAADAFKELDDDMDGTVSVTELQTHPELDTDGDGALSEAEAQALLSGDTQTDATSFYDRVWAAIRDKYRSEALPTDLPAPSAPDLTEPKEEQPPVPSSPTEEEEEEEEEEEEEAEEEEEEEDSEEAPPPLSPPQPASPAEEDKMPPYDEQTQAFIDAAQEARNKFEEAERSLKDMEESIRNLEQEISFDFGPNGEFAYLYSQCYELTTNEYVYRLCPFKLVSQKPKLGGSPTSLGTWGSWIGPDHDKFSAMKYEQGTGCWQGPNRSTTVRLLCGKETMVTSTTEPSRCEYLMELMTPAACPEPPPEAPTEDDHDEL

Legend:
[1] = molecular target: N-terminally 3xFLAG-tagged GPER1 fused to APEX2 (UniProt Q99527); assay: proximity labelling; F-GPER1-APEX2 in transfected HEK293T cells; 500 µM biotinyl tyramide 45 min, 1 mM H2O2 1 min, without or with 100 nM E2 for 10 min; RIPA lysate, streptavidin magnetic beads, LC-MS/MS; compared with F-APEX2-NES; 3 biological replicates
[2] = molecular target: N-terminally 3xFLAG-tagged GPER1 fused to APEX2 (UniProt Q99527); assay: affinity purification with mass spectrometry; F-GPER1 or F-GPER1-APEX2 in transfected HEK293T; lysis buffer 10 mM Tris-HCl pH 7.5, 50 mM NaCl, 1 mM EDTA, 10% glycerol, 10 mM Na-molybdate; anti-FLAG IP overnight at 4 °C, Protein G Dynabeads, mouse IgG as control; LC-MS/MS
[3] = molecular target: N-terminally 3xFLAG-tagged GPER1 (G protein-coupled estrogen receptor 1) (UniProt Q99527); assay: as above

binding [1] | binding [2] | binding [3] | Substance
binds | binds | binds | STIM1 (from UniProt Q13586 23-685)
binds | binds | binds | protein kinase C substrate 80K-H (PRKCSH), regulatory subunit of α-glucosidase II (from UniProt P14314 15-528)
